The supplement of paper PMC11732987, “Enantioselective OTUD7B fragment discovery through chemoproteomics screening and high-throughput optimisation” (Communications Chemistry, 2025)
The list shows a part of the results. The data scatter; read single values as rough.

Amino acid sequences for entries named in this document (tags omitted). A change or cut given only in a name is not applied to a line headed by its entry. Residues count along the entry.
UniProt Q8NBZ7: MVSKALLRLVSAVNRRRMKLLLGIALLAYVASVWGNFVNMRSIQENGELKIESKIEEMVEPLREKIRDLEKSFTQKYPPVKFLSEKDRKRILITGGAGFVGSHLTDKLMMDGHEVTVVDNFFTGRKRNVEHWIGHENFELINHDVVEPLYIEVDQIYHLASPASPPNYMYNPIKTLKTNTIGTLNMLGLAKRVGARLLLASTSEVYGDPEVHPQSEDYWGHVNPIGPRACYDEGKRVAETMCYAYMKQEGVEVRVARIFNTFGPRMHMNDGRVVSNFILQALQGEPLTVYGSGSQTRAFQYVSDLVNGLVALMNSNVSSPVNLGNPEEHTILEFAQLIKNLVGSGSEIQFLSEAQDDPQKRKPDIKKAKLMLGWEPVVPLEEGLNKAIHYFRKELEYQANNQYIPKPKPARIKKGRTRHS
UniProt O94782, 54-73: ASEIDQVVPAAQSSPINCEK
UniProt Q70CQ2: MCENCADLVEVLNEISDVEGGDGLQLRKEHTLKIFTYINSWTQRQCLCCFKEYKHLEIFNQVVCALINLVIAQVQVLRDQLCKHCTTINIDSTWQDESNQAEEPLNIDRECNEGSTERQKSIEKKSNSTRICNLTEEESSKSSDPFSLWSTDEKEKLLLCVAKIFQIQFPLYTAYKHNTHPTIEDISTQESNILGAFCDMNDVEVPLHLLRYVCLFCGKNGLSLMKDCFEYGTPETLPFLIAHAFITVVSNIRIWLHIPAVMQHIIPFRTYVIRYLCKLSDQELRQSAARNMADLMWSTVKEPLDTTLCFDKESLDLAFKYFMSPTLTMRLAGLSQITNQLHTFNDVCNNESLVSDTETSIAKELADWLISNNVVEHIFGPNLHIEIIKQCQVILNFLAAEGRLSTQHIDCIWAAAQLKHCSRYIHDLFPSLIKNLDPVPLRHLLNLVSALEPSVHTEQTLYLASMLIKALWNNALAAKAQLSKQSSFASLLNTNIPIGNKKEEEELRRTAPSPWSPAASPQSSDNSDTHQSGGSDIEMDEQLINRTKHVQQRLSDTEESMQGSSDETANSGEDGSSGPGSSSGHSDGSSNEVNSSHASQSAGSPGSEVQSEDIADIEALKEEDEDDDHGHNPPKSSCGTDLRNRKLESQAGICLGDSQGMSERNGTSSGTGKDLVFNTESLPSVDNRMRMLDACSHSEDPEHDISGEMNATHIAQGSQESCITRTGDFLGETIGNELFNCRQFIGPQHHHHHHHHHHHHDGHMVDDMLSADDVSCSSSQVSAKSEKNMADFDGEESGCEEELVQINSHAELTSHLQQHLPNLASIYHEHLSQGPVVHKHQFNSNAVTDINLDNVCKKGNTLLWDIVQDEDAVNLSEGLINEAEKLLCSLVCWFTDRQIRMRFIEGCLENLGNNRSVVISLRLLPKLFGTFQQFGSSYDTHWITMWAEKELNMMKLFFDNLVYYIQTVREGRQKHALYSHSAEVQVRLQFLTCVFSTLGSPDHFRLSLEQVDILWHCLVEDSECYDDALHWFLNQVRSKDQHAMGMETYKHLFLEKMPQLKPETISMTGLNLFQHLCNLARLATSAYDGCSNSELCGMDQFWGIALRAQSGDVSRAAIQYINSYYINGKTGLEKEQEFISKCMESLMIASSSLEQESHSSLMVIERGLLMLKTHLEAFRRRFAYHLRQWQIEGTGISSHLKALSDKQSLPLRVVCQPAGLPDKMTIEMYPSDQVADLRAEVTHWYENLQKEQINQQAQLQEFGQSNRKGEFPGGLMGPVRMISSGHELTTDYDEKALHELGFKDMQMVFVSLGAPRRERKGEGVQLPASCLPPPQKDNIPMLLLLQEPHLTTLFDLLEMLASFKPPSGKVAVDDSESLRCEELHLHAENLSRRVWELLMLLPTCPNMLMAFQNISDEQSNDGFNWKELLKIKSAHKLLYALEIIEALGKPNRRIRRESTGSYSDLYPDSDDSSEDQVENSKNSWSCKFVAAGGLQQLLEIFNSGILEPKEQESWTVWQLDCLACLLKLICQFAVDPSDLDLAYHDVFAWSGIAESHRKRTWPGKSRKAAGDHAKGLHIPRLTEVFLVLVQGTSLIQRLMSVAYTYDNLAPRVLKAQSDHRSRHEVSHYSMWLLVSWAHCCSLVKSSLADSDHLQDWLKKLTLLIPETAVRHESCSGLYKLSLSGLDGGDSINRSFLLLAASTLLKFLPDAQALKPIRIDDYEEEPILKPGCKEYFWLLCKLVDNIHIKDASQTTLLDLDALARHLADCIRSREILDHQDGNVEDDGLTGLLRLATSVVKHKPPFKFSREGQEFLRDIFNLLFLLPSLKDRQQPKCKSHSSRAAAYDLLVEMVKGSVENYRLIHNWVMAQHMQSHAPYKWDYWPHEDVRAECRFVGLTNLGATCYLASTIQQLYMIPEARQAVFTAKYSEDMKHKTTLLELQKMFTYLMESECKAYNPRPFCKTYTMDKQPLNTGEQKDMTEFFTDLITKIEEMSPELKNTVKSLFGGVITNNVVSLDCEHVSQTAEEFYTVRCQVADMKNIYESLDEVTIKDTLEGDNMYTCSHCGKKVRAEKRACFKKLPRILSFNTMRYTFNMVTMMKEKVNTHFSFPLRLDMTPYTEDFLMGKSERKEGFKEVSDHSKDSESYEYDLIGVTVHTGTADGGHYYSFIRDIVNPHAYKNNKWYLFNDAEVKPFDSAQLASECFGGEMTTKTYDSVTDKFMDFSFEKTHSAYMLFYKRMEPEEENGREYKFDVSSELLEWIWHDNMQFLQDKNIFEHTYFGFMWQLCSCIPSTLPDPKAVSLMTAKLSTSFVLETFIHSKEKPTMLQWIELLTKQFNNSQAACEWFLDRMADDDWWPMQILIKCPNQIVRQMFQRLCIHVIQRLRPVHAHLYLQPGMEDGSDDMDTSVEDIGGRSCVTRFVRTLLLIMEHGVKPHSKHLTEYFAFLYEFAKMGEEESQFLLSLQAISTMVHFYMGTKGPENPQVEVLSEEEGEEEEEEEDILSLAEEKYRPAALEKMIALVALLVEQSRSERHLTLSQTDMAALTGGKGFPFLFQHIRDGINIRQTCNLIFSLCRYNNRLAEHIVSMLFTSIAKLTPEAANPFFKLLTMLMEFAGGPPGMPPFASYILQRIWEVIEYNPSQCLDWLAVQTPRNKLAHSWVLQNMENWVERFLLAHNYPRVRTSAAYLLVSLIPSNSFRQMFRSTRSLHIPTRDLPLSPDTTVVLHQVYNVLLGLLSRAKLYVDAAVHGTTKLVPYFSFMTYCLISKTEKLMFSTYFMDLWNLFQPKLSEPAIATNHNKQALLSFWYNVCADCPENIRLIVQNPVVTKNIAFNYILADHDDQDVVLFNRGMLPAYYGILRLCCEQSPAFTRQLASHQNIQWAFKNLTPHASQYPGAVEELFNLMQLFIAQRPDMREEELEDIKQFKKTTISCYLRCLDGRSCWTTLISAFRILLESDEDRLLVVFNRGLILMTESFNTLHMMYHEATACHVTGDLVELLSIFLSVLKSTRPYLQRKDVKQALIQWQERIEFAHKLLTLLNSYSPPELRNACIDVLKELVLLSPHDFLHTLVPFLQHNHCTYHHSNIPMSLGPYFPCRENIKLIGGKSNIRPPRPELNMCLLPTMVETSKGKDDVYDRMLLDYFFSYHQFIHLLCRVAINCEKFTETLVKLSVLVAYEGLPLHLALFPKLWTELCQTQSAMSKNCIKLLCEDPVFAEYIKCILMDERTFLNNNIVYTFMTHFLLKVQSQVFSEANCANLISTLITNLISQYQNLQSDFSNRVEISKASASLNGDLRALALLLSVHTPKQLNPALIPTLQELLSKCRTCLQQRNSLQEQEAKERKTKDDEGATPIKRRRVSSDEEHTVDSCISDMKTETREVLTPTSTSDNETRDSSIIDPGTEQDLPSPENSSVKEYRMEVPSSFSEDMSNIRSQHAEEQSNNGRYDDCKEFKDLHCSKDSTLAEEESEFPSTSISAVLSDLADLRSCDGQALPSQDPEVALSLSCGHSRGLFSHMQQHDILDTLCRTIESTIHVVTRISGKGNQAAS
UniProt Q9NYU2: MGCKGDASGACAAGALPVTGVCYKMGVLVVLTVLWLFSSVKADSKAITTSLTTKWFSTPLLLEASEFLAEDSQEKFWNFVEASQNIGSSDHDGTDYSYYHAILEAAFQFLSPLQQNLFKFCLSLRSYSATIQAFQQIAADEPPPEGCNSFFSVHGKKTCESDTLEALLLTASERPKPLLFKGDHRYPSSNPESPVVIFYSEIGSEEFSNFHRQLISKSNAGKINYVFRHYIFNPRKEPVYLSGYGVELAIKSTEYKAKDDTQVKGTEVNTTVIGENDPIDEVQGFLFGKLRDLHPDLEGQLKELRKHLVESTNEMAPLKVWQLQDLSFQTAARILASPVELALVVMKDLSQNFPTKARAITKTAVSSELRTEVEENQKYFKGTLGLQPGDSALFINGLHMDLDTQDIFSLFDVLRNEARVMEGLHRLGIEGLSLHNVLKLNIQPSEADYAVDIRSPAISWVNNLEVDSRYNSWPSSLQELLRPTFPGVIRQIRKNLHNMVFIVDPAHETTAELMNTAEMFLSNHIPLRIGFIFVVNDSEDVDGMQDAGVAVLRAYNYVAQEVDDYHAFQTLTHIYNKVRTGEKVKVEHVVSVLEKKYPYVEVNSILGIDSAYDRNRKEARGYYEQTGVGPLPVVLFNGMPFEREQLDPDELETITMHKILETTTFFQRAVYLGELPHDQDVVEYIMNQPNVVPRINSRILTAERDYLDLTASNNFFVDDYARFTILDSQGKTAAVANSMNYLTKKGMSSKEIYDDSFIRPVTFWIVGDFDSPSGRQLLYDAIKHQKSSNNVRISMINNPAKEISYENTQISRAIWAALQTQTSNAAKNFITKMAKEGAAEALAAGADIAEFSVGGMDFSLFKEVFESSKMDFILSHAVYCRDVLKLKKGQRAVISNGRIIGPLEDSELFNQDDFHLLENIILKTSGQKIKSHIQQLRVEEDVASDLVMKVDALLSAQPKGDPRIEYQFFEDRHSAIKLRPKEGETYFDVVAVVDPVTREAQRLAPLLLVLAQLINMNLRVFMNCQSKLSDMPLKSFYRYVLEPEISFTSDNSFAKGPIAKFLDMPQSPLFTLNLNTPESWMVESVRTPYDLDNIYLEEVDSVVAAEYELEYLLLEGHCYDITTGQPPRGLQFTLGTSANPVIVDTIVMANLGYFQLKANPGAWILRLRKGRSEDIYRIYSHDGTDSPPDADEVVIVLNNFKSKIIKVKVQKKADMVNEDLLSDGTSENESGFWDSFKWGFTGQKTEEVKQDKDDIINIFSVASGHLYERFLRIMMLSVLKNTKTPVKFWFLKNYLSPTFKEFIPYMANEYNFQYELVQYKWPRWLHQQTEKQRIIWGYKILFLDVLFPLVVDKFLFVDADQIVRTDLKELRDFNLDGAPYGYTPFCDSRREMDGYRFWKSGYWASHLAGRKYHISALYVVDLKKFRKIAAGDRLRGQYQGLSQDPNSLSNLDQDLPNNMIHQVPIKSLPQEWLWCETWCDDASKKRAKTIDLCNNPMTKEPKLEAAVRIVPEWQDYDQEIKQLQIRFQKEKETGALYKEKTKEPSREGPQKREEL
UniProt Q9P253: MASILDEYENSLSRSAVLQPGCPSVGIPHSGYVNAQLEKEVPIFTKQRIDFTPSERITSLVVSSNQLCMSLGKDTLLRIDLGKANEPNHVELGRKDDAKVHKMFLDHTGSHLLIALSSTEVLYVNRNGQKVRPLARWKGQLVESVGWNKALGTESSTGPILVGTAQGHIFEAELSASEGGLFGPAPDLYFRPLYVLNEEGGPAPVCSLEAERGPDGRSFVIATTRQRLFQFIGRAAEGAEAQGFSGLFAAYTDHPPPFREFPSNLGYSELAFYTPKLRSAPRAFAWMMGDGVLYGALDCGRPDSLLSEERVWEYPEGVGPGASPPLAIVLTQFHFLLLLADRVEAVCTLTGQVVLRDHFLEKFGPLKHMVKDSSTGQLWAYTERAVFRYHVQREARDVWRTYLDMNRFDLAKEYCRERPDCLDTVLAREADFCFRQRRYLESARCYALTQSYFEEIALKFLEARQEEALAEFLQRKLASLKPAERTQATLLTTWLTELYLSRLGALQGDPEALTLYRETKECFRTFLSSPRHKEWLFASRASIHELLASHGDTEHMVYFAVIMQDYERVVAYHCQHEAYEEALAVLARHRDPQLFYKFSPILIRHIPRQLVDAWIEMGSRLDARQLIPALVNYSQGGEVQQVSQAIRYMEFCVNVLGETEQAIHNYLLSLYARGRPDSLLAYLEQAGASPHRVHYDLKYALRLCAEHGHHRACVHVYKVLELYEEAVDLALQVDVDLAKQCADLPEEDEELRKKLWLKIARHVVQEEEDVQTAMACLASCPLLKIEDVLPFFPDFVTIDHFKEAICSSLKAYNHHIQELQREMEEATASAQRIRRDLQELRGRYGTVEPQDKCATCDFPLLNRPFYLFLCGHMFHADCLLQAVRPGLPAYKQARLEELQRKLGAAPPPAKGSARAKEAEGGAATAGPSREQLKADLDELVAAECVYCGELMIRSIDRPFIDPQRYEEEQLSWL
UniProt Q9UPU5, 1-24: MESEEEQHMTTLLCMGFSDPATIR
UniProt Q8NB14, 545-568: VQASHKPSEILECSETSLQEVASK

The targets below were run with ClCC(=O)N[C@H]1CCCc2ccccc12 (assay: log2 mean competition ratio of IA-DTB cysteine labelling (DMSO/compound) (log2 ratio); higher = stronger cysteine engagement by compound). Settings: 200 µM; treatment time: 4 h; cell line lysate: HEK293T.
Procedure: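 IA-DTB competitive cysteine chemoproteomics in HEK293T RIPA lysate. Lysates were treated with compound 29 or 30 at 50 or 200 µM for 4 h, then IA-DTB (500 µM, 1 h), trypsin-digested, NeutrAvidin-enriched and analysed by diaPASEF. Competition ratio = intensity DMSO / intensity compound (n=4 treated, n=64 DMSO); binding: mean log2 CR ≥ 1 and p ≤ 0.05 plus QC filters. Target is the cysteine site.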

Row | Target | log2 mean competition ratio
1 | USP54 C1394 (UniProt Q70EL1) | 0.391
2 | USP54 C88 (UniProt Q70EL1) | 0.112
3 | UTP20 C1384 (UniProt O75691) | -0.702
4 | VDAC2 C76 | -0.316
5 | UTP6 C524 (UniProt Q9NYH9) | 0.0741
6 | UTP18 C241 (UniProt Q9Y5J1) | -0.368
7 | USP3 C385 (UniProt Q9Y6I4) | -0.097
8 | UGP2 C123 | 0.0177
9 | UXS1 C230 (UniProt Q8NBZ7) | 0.046
10 | USP3 C157 (UniProt Q9Y6I4) | 0.724
11 | UTRN C2986 (UniProt P46939) | 0.218
12 | UROS C119 (UniProt P10746) | -0.399
13 | UTP25 C642 | -0.361
14 | UTY C76 | -0.312
15 | USP1 C71 (UniProt O94782) | -0.114
16 | USP34 C1731 (UniProt Q70CQ2) | 0.11
17 | USP34 C2033 (UniProt Q70CQ2) | 0.0643
18 | UGGT1 C1493 (UniProt Q9NYU2) | 0.419
19 | VARS2 C793 | 0.155

Row | Target | log2 mean competition ratio
20 | UNK C696 (UniProt Q9C0B0) | -0.0595
21 | USF1 C229 (UniProt P22415) | 0.0114
22 | UMPS C255 (UniProt P11172) | -0.0676
23 | UTP23 C207 (UniProt Q9BRU9) | -0.135
24 | USP42 C1145 (UniProt Q9H9J4) | 0.285
25 | UBR5 C2267 (UniProt O95071) | -0.141
26 | USP34 C638 (UniProt Q70CQ2) | 0.184
27 | URGCP C49 (UniProt Q8TCY9) | 0.198
28 | VPS18 C806 (UniProt Q9P253) | -0.0808
29 | UQCRC2 C192 (UniProt P22695) | -0.0259
30 | USP24 C14 (UniProt Q9UPU5) | -0.384
31 | USP35 C213 | 0.296
32 | USP9X C1451 (UniProt Q93008) | -0.129
33 | VPS11 C709 (UniProt Q9H270) | -0.114
34 | UBR5 C739 (UniProt O95071) | -0.689
35 | URB1 C473 (UniProt O60287) | -0.2
36 | USP38 C557 (UniProt Q8NB14) | -0.114
37 | UBXN2B C127 (UniProt Q14CS0) | 0.131

As a short view, some entries already given.
Row | Target | log2 mean competition ratio
20 | UNK C696 (UniProt Q9C0B0) | -0.0595
21 | USF1 C229 (UniProt P22415) | 0.0114
